The values that follow come from PubChem BioAssay AID662 (National Center for Advancing Translational Sciences (NCATS), 2007).

The list shows a part of the results. These are further read-outs of the screen, such as a control signal, another cell line or another target. No call is given for them. The list favours compounds with an active or inconclusive main result. Words in brackets tell the shape of the fitted curve; partial curves, single points and poor fits give uncertain potencies.

This assay can be described thus: Cell signaling CRE-BLA (Fsk stim). Conditions: CHO CRE-bla reporter (cAMP response element driving beta-lactamase), forskolin EC10, beta-lactamase ratio; measured here: 460 nm blue channel. The method, boiled down: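 Titrated compounds plus EC10 NKH 477 on CHO CRE-bla cells, 3 h, 37 °C. CCF4, 2 h RT. Ratio 460/530 nm → AC50.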
Usually AC50 stands for the concentration giving half of the maximal activity seen. For the molecule `COc1cccc(Nc2ncc3nc(-c4ccccc4)c(=O)n(C[C@H]4CCCO4)c3n2)c1`, the AC50 is 12.6 µM [rising, partial curve].

As to `Nc1c2ccccc2nc2ccccc12`, the concentration at half-maximal activity (AC50) is 12.6 µM [rising, partial curve]. For the molecule `c1ccc(C2=Nn3c(nnc3-c3ccncc3)SC2)cc1`, the AC50 was 3.16 µM [falling, partial curve]. Then `O=C(Nc1ccc2c(c1)OCO2)N1CCN(C/C=C/c2ccccc2)CC1`, with 3.98 µM [falling, partial curve]. Take `Cc1c(C(=O)OCC(=O)c2c(N)n(CC(C)C)c(=O)n(C)c2=O)oc2ccccc12`: the AC50 was 1.58 µM [rising, full curve, poor fit]. Then `O/N=C1\CCCc2nnc3c(c21)CCCC3`, with 0.794 µM [rising, full curve, poor fit]; and `Cc1ccc(CN2C3=NCCCN3c3ccccc32)cc1`, with 10 µM [falling, partial curve, poor fit]; and `N#Cc1c(N)sc2c1CCCCCC2`, with 5.01 µM [rising, full curve, poor fit]. Turning to `COc1ccc(C2=NOC(C(=O)Nc3cc(Br)ccc3O)C2)cc1OC` (configuration not stated), the AC50 is 10 µM [rising, partial curve, poor fit]. Then `CN1CCC(=C2c3ccccc3Sc3ccccc32)CC1`, with 5.01 µM [rising, single point]. The same measure for `CCNc1ncc2nc(-c3ccc(Cl)cc3)c(=O)n(Cc3cccs3)c2n1`: 12.6 µM [rising, partial curve]; for `COc1ccccc1CNc1ncncc1-c1cccnc1`: 5.01 µM [rising, full curve, poor fit]; for `Cc1ccc2[nH]c3c(c2c1)CCc1cn[nH]c1-3`: 1 µM [falling, partial curve].

Regarding `Nc1nnc(-c2cc3ccccc3oc2=O)s1`, the AC50 is 12.6 µM [rising, single point]. Take `O=C(COc1ncnc2ccccc12)NCCC1=CCCCC1`: the concentration at half-maximal activity (AC50) was 3.98 µM [falling, single point]. Then `COc1ccc(NC(=O)CN(c2ccccc2)S(=O)(=O)N(C)C)cc1OC`, with 6.31 µM [rising, partial curve]; and `COC(=O)c1c(NC(=O)c2ccco2)sc2c1C(C(=O)OC)CC2` (configuration not stated), with 10 µM [rising, partial curve]; and `CCOC(=O)N1CCC(NC(=O)CNS(=O)(=O)c2ccc(Br)s2)CC1`, with 0.0631 µM [falling, full curve]. The same measure for `COc1ccc(CNc2ncnc3ccc(-c4cccnc4)cc23)c(OC)c1`: 0.631 µM [rising, full curve]; for `CN(C)C(=O)c1ccc(-c2nc(NCc3ccccc3)c3ccccc3n2)cc1`: 2.51 µM [rising, full curve]. The same measure for `CCOC(=O)C1CCCN(c2ncnc3c2cnn3-c2ccc(Cl)cc2)C1` (configuration not stated): 3.98 µM [rising, partial curve]; for `CCOc1ccc(C(=O)CN2CCN(S(=O)(=O)c3ccc(F)cc3)CC2)cc1`: 25.1 µM [falling, partial curve, poor fit]. Regarding `CNc1nc(-c2ccccc2OC)nc2ccccc12`, the AC50 is 10 µM [rising, partial curve]. The same measure for `O=C(O)COc1c(F)c(F)c(C(F)(F)F)c(F)c1F`: 0.316 µM [rising, partial curve]. Take `O=C(Nc1ccc(-c2cn3ccsc3n2)cc1)C1COc2ccccc2O1` (configuration not stated): the AC50 was 2.51 µM [rising, single point]. Then `O=C(O)[C@@H]1CCCC[C@@H]1C(=O)N1CCc2ccccc2C1CN1C(=O)c2ccccc2C1=O` (some centres not stated), with 0.02 µM [falling, full curve, poor fit]; and `Cc1sc2c(=O)n3c(nc2c1C(=O)NCCCN1CCOCC1)CCCCC3`, with 10 µM [rising, partial curve].

On to `O=C(NCC1CCS(=O)(=O)C1)Oc1ccccc1` (configuration not stated), for which the AC50 is 1.26 µM [falling, partial curve, poor fit].

As for `CCCCC(=O)N=c1sc2cc(S(C)(=O)=O)ccc2n1C`, the AC50 is 15.8 µM [rising, partial curve]. Then `CCSc1nnc(Cc2cc(=O)[nH]c(=O)[nH]2)n1-c1cc(C)ccc1C`, with 0.00631 µM [falling, full curve, poor fit]; and `c1ccc(-c2ccccn2)nc1`, with 12.6 µM [falling, single point]. Take `CSCCC(NC(=O)CCN1C(=O)c2ccccc2C1=O)C(=O)O` (configuration not stated): the AC50 was 0.0631 µM [falling, full curve]. The same measure for `Cc1ccc(NC(=O)N2CCC(c3nc4c(nnn4Cc4cccc(Cl)c4)c(=O)[nH]3)CC2)cc1`: 12.6 µM [rising, partial curve]; for `CCOC(=O)Cn1c(=O)oc2cc(S(=O)(=O)Nc3cccc(C)c3)ccc21`: 7.94 µM [rising, partial curve].

`CCCCCn1c(Sc2nc3ccccc3s2)nc2c1c(=O)[nH]c(=O)n2C`: the AC50 is 12.6 µM [rising, partial curve]. Then `Cc1cc2c(c(=O)n1Cc1cccnc1)C(Cc1ccccc1)C(C#N)=C(N)O2` (configuration not stated), with 31.6 µM [falling, single point]; and `COc1ccc(/C(O)=C2/C(=O)C(=O)N(CCN3CCOCC3)C2c2ccc(C)cc2)cc1` (configuration not stated), with 0.00398 µM [falling, full curve, poor fit].

For `COC(=O)c1ccccc1NC(=O)CN1CCC(C(=O)c2ccc3c(c2)OCCO3)CC1`, the AC50 is 25.1 µM [falling, single point]. `COc1ccc(N(CC(=O)NC2CCCC2)C(=O)Cn2nnc(-c3ccc(F)cc3)n2)cc1OC`: the AC50 is 25.1 µM [falling, single point].

With `Cn1c(=O)c(NCCO)c2c3c(cccc31)C(=O)c1ccccc1-2`, the half-maximal activity concentration (AC50) is 10 µM [rising, partial curve].

Take `CC(C)C(NC(=O)C1CCCCC1)C(=O)Nc1ccc2c(c1)OCCO2` (configuration not stated): the AC50 was 15.8 µM [falling, partial curve, poor fit]. Then `C=CCn1c(N)c(C(=O)OCCC)c2nc3ccccc3nc21`, with 10 µM [rising, partial curve]. Then `O=S(=O)(NCCCCCNS(=O)(=O)c1ccc(F)cc1)c1ccc(F)cc1`, with 5.01 µM [falling, partial curve]. On to `CCn1c(N)c(C(=O)NCc2ccco2)sc1=S`, for which the AC50 was 0.00398 µM [falling, full curve, poor fit].

Take `N#CC1=C(N)Oc2c(ccc3cccnc23)C1c1cccnc1` (configuration not stated): the AC50 is 2 µM [rising, single point]. The same measure for `O=C(CSc1nccc(=O)[nH]1)N1CCCc2ccccc21`: 0.794 µM [rising, full curve, poor fit]; for `O=P(c1cccs1)(c1cccs1)c1cccs1`: 0.631 µM [falling, full curve]. The same measure for `O=C(O)c1cc2cc(Cl)cc(Cl)c2oc1=O`: 5.01 µM [falling, full curve]; for `CN(c1ccccc1)c1nc2ccsc2c(=O)s1`: 0.1 µM [falling, full curve, poor fit]; for `COc1ccccc1NC(=O)c1oc2ccccc2c1NC(=O)c1cc(OC)c(OC)c(OC)c1`: 0.794 µM [rising, full curve]. `Cn1cc(C(=O)NCCc2ccccc2)c(=O)c2cc(S(=O)(=O)N3CCOCC3)ccc21`: the AC50 was 25.1 µM [rising, single point].

For the molecule `COc1ccc(Oc2c(C)oc3cc(OC(=O)N4CCOCC4)ccc3c2=O)cc1`, the concentration at half-maximal activity (AC50) was 3.98 µM [falling, single point]. With `O=C(NCc1ccco1)c1cc2nc(-c3ccc4c(c3)OCO4)cc(C(F)(F)F)n2n1`, the AC50 was 15.8 µM [rising, partial curve].

Take `CCc1ccc2c(-c3cccc(Cl)c3)nc(=O)n(CC)c2n1`: the AC50 was 0.794 µM [rising, full curve]. Turning to `O=C(CNS(=O)(=O)c1ccc(Br)s1)NCC1COc2ccccc2O1` (configuration not stated), the concentration at half-maximal activity (AC50) was 0.316 µM [falling, full curve]. Then `CCc1ccc2[nH]c(=O)c(CN(Cc3ccc4c(c3)OCO4)C(=O)c3ccco3)cc2c1`, with 10 µM [rising, partial curve]; and `C=CCNc1nc(Nc2ccc(OC)cc2OC)nc(OCC)n1`, with 1 µM [rising, full curve].

For the molecule `Cc1nc(SCc2cccc(F)c2)[nH]c(=O)c1C#N`, the AC50 is 1.26 µM [falling, partial curve]. Then `CCSc1nc2c(c(=O)[nH]c(=O)n2C)n1CC(O)COc1ccccc1C` (configuration not stated), with 10 µM [rising, partial curve]; and `Cc1cc(C)c(NC(=O)C[C@H](CC(=O)O)c2cccc3ccccc23)c(C(=O)N2CCC3(CCCC3)CC2)c1`, with 12.6 µM [falling, single point]. The same measure for `Cc1cc(C(=O)CN2C(=O)NC(C)(c3cccc(Br)c3)C2=O)c(C)n1Cc1ccco1` (configuration not stated): 10 µM [falling, partial curve]; for `CN(C)c1ncc2nc(-c3cccs3)c(=O)n(-c3ccccc3)c2n1`: 15.8 µM [rising, partial curve]. For the molecule `COC(=O)c1ccc(CSc2nnc(NCc3ccccc3)s2)o1`, the concentration at half-maximal activity (AC50) was 3.98 µM [falling, partial curve]. Then `O=C(c1n[nH]c(=O)c2ccccc12)N1CCN(C2c3ccccc3-c3ccccc32)CC1`, with 0.00794 µM [falling, full curve, poor fit]; and `COc1ccc(-n2c(Cc3cccn3C)nnc2SCC(=O)Nc2ccc(C)cc2C)cc1`, with 5.01 µM [falling, partial curve].

Consider `CN(c1ccccc1)c1nc(N2CCCC2)nc(-n2ccnc2)n1`, for which the concentration at half-maximal activity (AC50) was 15.8 µM [rising, partial curve]. Then `Cn1nc(-c2ccc(N3CCOCC3)c(NS(=O)(=O)c3ccccc3)c2)c2ccccc2c1=O`, with 1.58 µM [rising, full curve].
